Among the data in publication PMC11959276 are binding values, retold here.

Chains of the proteins cited; added tags and fusions are not shown. Residues count along the entry.
UniProt P27773, residues 25-505: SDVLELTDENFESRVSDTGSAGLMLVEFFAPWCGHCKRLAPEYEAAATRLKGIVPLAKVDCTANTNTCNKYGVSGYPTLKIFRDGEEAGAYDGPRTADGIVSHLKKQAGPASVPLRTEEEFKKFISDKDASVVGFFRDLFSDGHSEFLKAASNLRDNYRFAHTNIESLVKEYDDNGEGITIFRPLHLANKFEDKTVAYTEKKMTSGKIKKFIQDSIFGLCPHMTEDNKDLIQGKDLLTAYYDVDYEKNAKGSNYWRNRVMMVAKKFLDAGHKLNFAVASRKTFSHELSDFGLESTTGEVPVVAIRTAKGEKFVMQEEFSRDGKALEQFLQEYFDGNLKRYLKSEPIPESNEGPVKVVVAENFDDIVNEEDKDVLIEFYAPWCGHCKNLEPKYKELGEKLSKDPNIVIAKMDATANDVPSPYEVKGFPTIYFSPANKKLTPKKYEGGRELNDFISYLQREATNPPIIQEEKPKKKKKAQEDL

This assay concerns the target human Tapasin isoform 1 (human) (UniProt O15533). In words: co-IP; 1% NP-40 lysate of Tapasin-/- fibroblasts expressing human Tapasin isoforms or vector alone; Tapasin precipitated with PaSta.1 anti-human Tapasin monoclonal and Protein G sepharose overnight; blot with rabbit anti-ERp57.

Results are given in words; binding and its absence hold for the method and conditions named. In cells and extracts the contact can be indirect. Some binding calls cover weakened binding; strength is not graded here.

As for “mouse ERp57 (from UniProt P27773 25-505)”, the binding result is “binds”.
